# Test results as given in patent US20260273084A1 (ADC THERAPEUTICS SA, priority 2023, published 2026).
# Test: general procedure: peptide synthesis; CTC-resin ([…]); HATU/HOBT/DIEA (SPPS); T3P/DIEA (solution)
# Settings: conjugation step
substance,measurement,value
"(S)-2-(18-(2,5-dioxo-2,5-dihydro-1H-pyrrol-1-yl)-4,7,10,13,16-pentaoxo-3,6,9,12,15-pentaazaoctadecanamido)-N—((S)-1-(((1S,9S)-9-ethyl-5-fluoro-9-hydroxy-4-methyl-10,13-dioxo-2,3,9,10,13,15-hexahydro-1H,12H-benzo[de]pyrano[3′,4′:6,7]indolizino[1,2-b]quinolin-1-yl)amino)-1-oxopropan-2-yl)-3-methylbutanamide",conjugation yield,22%
